# Measured values reported in the supplement of paper PMC7666118.
# By UniProt entry, the sequences of proteins in these tests, tags left out. Where a name states a change or a piece, a line headed by the entry shows the natural chain unless it says otherwise.
# UniProt Q9H3K6: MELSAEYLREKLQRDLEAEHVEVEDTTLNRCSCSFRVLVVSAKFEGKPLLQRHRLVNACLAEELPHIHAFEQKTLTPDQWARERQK
# UniProt O75155: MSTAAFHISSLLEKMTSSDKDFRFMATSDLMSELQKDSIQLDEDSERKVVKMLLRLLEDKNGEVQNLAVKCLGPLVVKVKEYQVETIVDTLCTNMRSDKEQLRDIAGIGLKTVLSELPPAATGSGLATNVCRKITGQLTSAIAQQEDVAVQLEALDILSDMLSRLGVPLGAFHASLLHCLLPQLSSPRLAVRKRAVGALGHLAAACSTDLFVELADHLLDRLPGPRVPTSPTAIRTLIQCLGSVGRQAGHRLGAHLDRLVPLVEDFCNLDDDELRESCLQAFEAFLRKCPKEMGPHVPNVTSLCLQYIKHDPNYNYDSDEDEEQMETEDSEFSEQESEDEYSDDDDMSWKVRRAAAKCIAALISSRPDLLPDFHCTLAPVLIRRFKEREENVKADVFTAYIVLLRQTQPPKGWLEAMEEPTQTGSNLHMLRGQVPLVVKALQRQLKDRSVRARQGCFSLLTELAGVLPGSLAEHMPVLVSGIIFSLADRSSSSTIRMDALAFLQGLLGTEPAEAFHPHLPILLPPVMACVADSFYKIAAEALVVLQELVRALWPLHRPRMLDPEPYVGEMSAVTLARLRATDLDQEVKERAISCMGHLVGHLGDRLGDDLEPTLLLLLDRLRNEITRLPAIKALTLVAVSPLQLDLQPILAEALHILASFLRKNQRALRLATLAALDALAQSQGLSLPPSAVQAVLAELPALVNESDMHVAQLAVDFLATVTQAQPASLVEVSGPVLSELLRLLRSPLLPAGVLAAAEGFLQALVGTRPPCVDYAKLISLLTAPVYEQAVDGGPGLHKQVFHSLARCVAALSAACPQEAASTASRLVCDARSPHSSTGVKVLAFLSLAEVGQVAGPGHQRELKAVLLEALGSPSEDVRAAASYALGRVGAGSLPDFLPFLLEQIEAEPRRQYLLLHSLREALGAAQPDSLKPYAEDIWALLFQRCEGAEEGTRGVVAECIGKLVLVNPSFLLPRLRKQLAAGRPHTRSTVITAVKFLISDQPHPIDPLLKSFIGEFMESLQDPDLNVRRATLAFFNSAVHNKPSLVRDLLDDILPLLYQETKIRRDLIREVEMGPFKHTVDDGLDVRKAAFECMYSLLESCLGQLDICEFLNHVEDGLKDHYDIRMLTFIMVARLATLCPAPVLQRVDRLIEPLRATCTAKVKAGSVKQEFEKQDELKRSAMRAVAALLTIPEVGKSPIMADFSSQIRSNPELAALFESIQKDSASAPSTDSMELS
# UniProt Q9BV29: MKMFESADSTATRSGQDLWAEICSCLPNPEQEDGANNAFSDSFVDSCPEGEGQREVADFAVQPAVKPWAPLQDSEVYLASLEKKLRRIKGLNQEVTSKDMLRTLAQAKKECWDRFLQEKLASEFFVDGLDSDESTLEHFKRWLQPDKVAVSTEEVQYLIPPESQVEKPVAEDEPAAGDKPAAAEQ
# UniProt Q9H0E9, whole entry: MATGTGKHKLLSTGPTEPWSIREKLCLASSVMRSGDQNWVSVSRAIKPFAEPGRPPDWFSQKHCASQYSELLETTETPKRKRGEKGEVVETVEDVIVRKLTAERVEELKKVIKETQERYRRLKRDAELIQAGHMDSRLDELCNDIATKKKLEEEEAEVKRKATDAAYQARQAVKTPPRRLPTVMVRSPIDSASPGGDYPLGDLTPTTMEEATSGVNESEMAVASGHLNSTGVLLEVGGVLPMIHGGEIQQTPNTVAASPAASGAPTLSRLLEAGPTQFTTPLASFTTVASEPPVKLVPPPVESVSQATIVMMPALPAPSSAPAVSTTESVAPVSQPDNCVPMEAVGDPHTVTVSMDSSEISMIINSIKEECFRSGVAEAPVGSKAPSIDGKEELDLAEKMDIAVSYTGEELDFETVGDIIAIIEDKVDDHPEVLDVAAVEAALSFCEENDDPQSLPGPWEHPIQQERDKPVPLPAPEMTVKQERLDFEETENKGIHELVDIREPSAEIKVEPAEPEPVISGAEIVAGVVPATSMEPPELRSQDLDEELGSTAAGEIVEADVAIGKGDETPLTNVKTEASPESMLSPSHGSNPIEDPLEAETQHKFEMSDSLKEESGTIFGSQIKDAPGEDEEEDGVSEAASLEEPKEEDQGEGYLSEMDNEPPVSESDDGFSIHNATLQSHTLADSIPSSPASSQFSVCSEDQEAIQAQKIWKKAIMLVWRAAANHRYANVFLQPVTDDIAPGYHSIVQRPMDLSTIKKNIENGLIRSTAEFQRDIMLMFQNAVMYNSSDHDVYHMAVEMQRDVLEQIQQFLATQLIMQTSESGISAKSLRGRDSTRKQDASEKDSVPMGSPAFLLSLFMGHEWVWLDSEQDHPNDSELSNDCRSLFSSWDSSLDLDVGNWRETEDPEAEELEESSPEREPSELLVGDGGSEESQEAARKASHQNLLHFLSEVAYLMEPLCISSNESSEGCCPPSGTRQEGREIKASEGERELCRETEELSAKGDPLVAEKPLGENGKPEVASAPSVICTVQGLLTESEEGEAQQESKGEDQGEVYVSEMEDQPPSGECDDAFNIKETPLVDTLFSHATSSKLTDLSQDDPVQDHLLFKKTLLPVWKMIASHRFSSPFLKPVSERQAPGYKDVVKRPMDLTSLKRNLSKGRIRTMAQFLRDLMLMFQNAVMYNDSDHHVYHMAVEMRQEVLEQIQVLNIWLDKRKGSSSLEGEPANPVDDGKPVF
# UniProt B2RBV5: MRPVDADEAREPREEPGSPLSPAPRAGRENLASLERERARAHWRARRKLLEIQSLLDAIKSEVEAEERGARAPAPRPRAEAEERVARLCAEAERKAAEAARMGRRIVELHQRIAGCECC
# UniProt Q9BQ61: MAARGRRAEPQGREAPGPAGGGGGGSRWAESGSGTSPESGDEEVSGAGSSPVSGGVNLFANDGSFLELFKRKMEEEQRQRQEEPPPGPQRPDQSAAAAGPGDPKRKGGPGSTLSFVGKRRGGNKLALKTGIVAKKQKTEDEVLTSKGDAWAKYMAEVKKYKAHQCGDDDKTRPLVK
# UniProt Q9BRD0: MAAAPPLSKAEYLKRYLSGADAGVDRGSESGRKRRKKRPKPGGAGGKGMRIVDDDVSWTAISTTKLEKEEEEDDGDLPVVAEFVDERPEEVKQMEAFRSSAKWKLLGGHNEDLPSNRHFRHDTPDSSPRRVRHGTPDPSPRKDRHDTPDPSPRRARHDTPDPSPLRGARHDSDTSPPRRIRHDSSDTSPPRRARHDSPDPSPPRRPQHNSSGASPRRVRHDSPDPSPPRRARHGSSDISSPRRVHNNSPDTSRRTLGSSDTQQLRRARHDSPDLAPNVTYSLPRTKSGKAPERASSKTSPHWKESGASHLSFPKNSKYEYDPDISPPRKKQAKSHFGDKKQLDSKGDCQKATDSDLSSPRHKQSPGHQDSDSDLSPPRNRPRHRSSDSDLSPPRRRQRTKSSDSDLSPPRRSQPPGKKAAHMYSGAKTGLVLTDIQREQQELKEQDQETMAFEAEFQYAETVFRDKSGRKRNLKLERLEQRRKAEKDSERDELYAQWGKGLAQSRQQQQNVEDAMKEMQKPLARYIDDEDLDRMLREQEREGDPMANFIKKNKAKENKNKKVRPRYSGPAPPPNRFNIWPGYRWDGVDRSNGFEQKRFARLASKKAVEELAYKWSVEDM
# UniProt Q9BXL7: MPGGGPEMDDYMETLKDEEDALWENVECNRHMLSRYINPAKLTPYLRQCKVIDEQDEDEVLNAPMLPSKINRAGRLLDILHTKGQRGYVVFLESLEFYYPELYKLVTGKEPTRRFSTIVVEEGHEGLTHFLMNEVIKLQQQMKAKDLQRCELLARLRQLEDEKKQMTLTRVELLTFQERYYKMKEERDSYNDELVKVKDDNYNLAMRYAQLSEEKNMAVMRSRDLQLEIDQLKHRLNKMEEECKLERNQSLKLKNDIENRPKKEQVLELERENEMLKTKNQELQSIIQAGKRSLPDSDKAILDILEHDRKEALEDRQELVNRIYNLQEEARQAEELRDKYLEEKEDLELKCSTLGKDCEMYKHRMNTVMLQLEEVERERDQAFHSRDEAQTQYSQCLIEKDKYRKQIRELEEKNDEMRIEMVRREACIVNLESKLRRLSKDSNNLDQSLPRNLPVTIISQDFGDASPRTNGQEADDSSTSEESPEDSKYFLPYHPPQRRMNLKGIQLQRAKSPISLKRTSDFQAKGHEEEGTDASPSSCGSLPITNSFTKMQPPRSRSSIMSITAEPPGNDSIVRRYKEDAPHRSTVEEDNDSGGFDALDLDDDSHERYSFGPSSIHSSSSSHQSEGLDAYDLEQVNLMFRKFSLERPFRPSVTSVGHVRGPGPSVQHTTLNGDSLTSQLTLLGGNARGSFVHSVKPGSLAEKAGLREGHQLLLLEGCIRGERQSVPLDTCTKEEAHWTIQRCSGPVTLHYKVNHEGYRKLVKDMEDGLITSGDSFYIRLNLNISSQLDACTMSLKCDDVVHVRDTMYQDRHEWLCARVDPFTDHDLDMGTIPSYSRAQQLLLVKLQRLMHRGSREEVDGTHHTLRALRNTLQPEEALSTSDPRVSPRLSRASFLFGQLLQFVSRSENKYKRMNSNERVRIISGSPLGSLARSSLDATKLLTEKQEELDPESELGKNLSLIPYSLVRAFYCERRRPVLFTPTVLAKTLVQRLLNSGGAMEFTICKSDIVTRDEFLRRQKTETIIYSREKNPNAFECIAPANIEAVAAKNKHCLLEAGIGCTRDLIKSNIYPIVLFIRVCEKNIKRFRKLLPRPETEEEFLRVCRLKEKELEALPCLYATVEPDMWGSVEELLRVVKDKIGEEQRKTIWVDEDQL
# UniProt P21283, whole entry: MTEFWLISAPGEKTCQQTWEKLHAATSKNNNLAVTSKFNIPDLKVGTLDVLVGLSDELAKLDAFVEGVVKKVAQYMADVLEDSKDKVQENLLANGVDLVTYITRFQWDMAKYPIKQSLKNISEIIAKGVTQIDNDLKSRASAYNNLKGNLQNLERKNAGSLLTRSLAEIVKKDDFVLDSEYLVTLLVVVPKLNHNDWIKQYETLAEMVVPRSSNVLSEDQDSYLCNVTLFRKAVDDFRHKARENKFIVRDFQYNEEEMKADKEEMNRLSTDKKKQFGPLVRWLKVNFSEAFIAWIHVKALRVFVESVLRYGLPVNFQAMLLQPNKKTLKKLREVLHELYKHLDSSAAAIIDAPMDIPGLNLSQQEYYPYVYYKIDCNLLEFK
# UniProt Q8IXQ3: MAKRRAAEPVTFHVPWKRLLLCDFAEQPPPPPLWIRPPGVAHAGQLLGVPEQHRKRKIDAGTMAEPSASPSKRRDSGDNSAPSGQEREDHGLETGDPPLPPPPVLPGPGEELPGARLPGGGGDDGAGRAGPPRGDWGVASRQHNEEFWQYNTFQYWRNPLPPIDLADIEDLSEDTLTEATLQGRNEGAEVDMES
# UniProt Q8N8R5: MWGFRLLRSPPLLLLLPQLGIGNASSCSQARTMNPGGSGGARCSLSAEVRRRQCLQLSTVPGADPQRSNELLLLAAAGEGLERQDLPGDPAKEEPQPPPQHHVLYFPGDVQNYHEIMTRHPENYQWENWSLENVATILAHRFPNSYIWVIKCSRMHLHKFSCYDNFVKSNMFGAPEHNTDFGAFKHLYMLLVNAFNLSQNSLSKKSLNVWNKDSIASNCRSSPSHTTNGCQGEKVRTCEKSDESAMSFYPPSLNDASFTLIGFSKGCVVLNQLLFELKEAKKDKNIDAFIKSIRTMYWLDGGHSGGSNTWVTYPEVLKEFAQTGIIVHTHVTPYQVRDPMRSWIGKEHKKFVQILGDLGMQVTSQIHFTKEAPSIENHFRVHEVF
# UniProt Q676U5: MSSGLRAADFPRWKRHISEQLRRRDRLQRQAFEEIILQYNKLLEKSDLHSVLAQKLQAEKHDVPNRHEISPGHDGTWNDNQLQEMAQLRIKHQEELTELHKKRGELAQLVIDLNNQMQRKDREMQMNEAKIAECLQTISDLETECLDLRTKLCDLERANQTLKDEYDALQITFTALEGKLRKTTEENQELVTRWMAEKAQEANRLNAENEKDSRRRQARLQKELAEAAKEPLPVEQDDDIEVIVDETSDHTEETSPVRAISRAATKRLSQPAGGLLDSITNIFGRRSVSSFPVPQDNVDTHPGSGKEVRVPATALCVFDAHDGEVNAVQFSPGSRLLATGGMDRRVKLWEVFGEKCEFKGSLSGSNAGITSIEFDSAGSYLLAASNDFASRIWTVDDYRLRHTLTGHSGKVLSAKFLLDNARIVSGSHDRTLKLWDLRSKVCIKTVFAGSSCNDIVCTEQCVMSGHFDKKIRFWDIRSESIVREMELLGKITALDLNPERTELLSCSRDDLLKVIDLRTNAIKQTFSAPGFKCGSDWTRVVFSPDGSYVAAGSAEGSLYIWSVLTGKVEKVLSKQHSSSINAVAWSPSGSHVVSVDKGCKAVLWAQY
# UniProt Q92934: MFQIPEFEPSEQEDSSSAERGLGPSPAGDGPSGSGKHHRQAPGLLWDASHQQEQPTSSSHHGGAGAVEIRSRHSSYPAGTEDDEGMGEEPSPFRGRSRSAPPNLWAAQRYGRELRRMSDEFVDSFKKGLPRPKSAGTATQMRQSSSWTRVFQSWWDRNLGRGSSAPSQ
# This is one part of the list.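 Rule for the calls: active = dose-dependent thermal stabilisation significant by F-test of dose-response against flat model at 10% FDR; inactive = not significant.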
# Compound: Nc1nc2c(ncn2[C@@H]2O[C@H](COP(=O)(O)OP(=O)(O)OP(=O)(O)O)[C@@H](O)[C@H]2O)c(=O)[nH]1
# Assay: dose-dependent thermal stabilisation call (2D-TPP, DLPTP, 10% FDR) (binary (1 = stabilised)); higher = stabilised by the compound
# Conditions: system: Jurkat gel-filtered lysate; concentration range 1-500 µM
# Description: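 2D thermal proteome profiling in gel-filtered Jurkat E6.1 lysate (2 mg/ml) treated with NaGTP (0, 1, 10, 100, 500 uM) for 10 min at room temperature, then heated 3 min at one of 12 temperatures (42-63.9 C). Soluble protein was quantified by TMT10 MS. The value is the DLPTP call of the paper: dose-dependent thermal stabilisation over all temperatures at 10% FDR (F-test of a dose-response against a flat model); one experiment, one call per tested protein.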
row,Target,dose-dependent thermal stabilisation call
1,BTAF1 (UniProt O14981),active: 1
2,BANP (UniProt Q8N9N5),inactive: 0
3,BIRC6 (UniProt Q9NR09),inactive: 0
4,ATP5B (UniProt P06576),active: 1
5,"BOLA2, BOLA2B (UniProt Q9H3K6)",inactive: 0
6,ATPAF1 (UniProt Q5TC12),inactive: 0
7,CAND2 (UniProt O75155),inactive: 0
8,ASS1 (UniProt P00966),inactive: 0
9,CAMK4 (UniProt Q16566),inactive: 0
10,ASXL2 (UniProt Q76L83),inactive: 0
11,C15orf57 (UniProt Q9BV29),inactive: 0
12,BRD8 (UniProt Q9H0E9),inactive: 0
13,CAMSAP3 (UniProt Q9P1Y5),inactive: 0
14,C16orf87 (UniProt Q6PH81),inactive: 0
15,NA (UniProt B2RBV5),inactive: 0
16,C19orf43 (UniProt Q9BQ61),inactive: 0
17,BOP1 (UniProt Q14137),active: 1
18,ATG2B (UniProt Q96BY7),inactive: 0
19,ARSA (UniProt P15289),inactive: 0
20,ARHGAP45 (UniProt Q92619),inactive: 0

# A section of the results above:
row,Target,dose-dependent thermal stabilisation call
19,ARSA (UniProt P15289),inactive: 0
20,ARHGAP45 (UniProt Q92619),inactive: 0

# Carrying on.

row,Target,dose-dependent thermal stabilisation call
1,C1QBP (UniProt Q07021),inactive: 0
2,BUD13 (UniProt Q9BRD0),inactive: 0
3,ARHGAP5 (UniProt Q13017),inactive: 0
4,CARD11 (UniProt Q9BXL7),inactive: 0
5,BANF1 (UniProt O75531),active: 1
6,BCAT1 (UniProt P54687),active: 1
7,ARRB1 (UniProt P49407),inactive: 0
8,ATL3 (UniProt Q6DD88),active: 1
9,ARL6IP4 (UniProt Q66PJ3),inactive: 0
10,ATP6V1C1 (UniProt P21283),inactive: 0
11,C11orf84 (UniProt Q9BUA3),inactive: 0
12,BICD1 (UniProt Q96G01),active: 1
13,C9orf142 (UniProt Q9BUH6),inactive: 0
14,CAMK2D (UniProt Q13557),inactive: 0
15,ASPM (UniProt Q8IZT6),inactive: 0
16,C9orf40 (UniProt Q8IXQ3),inactive: 0
17,C2orf69 (UniProt Q8N8R5),inactive: 0
18,BLVRA (UniProt P53004),inactive: 0
19,ATG16L1 (UniProt Q676U5),inactive: 0
20,BAD (UniProt Q92934),inactive: 0
